# Source: PubChem BioAssay AID1439 (NMMLSC, 2008)
# Amino acid sequences for entries named in this document (tags omitted).
# UniProt P09471, whole entry, looked up: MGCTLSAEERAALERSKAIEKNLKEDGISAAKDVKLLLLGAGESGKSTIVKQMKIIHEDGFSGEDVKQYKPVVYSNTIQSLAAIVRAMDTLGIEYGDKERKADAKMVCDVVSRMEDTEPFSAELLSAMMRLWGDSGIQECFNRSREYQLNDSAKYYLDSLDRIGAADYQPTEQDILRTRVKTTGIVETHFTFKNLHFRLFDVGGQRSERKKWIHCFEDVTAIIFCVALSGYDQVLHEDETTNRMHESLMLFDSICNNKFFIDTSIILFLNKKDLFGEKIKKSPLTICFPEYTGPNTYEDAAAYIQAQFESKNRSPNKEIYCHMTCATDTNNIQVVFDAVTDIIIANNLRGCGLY
# The campaign covered roughly 220,000 compounds. About 770 (0.35%) were called active. Inconclusive results, whose numbers are uncertain, are shown with a selection of clear calls. Rule as the data show it: active = binding response below about 49% or above about 150%; inconclusive = no clear call, values can overlap the other calls; inactive = in between.
# Molecular target: Guanine nucleotide-binding protein G(o) subunit alpha (Homo sapiens) (UniProt P09471)
# Assay: RGS7-Galphao binding modulators, primary screen, biochemical, multiplexed bead flow cytometry (AID 1439);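 also: fluorescent Galphao held in activated GDP-AlF4 state binding bead-coupled RGS7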
# Details: at 10 µM, actives lie on both sides
row,SMILES,binding response (% of control)
1,COc1cccc(CNC(=O)C(Cc2ccccc2)n2cccc2)c1 (stereo unspecified),inconclusive: 136%
2,COc1ccccc1N1CCN(Cc2c[nH]c3ccccc23)CC1,inconclusive: 118%
3,Clc1ccc(C2=Nn3c(Cn4nnc5ccccc54)nnc3SC2)cc1,inconclusive: 194%
4,O=C(COc1ccc(Cl)cc1Cl)N/N=C1\CCCc2ccccc21,active: 26.6%
5,CCOc1ccc(S(=O)(=O)N(C)c2ccc(OCC(=O)NCc3ccc(C(=O)OC)cc3)cc2)cc1,inactive: 75%
6,COc1ccc(-c2nnn(CC(=O)N(CCN3CCOCC3)C(C(=O)NC3CCCC3)c3ccco3)n2)cc1 (stereo unspecified),inconclusive: 100%
7,Cc1ccc(NC(=S)Nc2ccc(S(=O)(=O)Nc3ncccn3)cc2)c(C)c1,inconclusive: 91.8%
8,CCOc1ccc(NC(=S)Nc2ccc(OC(F)(F)F)cc2)cc1,inactive: 98.2%
9,COC(=O)c1ccc(C2C(Oc3ccccc3)C(=O)N2CCc2ccc(F)cc2)cc1 (stereo unspecified),inactive: 112%
10,CCC(C)Nc1nc2c(c(=O)n(C)c(=O)n2C)n1C (stereo unspecified),inconclusive: 38.2%
11,CC/C(=N\NC(=O)Nc1nonc1N)c1ccc(OC)c(OC)c1,inconclusive: 92.9%
12,Cc1ncc(CO)c2cc(-c3nnc(Nc4ccc5c(c4)OCO5)s3)c(=O)oc12,inconclusive: 97.1%
13,Cn1c(Sc2ccc(C(=O)O)cc2[N+](=O)[O-])nnc1-c1ccccc1,inconclusive: 123%
14,COc1ccc(C2/C=C\CN(S(=O)(=O)/C=C/c3ccccc3)CC(=O)N2Cc2ccc(F)cc2)cc1 (stereo unspecified),inconclusive: 80.5%
15,Cc1ccc(C(=O)CSc2ccc(-c3cccnc3)nn2)cc1,inactive: 100%
16,O=C(O)c1nccnc1C(=O)NCc1csc2ccc(Cl)cc12,inconclusive: 77.8%
17,CCOC(=O)C(=N/O)/C(C)=N/NC(=O)C(=O)Nc1ccc(Cl)cc1,inconclusive: 96.5%
18,COc1ccc(C(=O)Nc2ccccc2C(=O)N/N=C/c2ccco2)cc1,inactive: 95.8%
19,C=C(C)C(=O)Nc1cccc(C2=NOC3(C2)C[C@H](C(N)=O)N(C(=O)COc2ccc(Cl)cc2)C3)c1 (stereo partly specified),inconclusive: 104%
20,O=C(CC(NC(=O)OCc1ccccc1)C(=O)O)OCc1ccccc1 (stereo unspecified),inconclusive: 80.9%
21,NC(=O)NC(CC(=O)NCCCc1ccccc1)c1ccc(Cl)cc1 (stereo unspecified),inconclusive: 122%
22,O=[N+]([O-])c1[nH]cnc1/C=C/c1ccccc1,inconclusive: 94.5%
23,CCC(CC)NC(=O)Cn1c(C(C)NC(C)=O)nc2ccccc21 (stereo unspecified),inconclusive: 129%

row,SMILES,binding response (% of control)
1,CN(CC(=O)Nc1ccc2c(c1)OCO2)S(=O)(=O)c1ccc2c(c1)CCC(=O)N2,inconclusive: 92%
2,CC(O)c1nc2c(c(=O)n(C)c(=O)n2C)n1C (stereo unspecified),inconclusive: 84.5%
3,NC(=O)c1ccccc1OCC(=O)Nc1ccc(Cl)c(Cl)c1,inconclusive: 124%
4,Cc1cc(NC(=O)c2cccc([N+](=O)[O-])c2)no1,inconclusive: 92.5%
5,O=C(Cc1ccccc1)N/N=C/c1ccc(S(=O)(=O)O)o1,inconclusive: 113%
6,Cc1cccc(CN2CCC(CNC(=O)CSc3cc(=O)n(C)c4cc(Cl)ccc34)CC2)c1,inconclusive: 105%
7,Cc1cc(C)c2oc(C(=O)N(Cc3cccs3)C3CCS(=O)(=O)C3)cc(=O)c2c1 (stereo unspecified),inconclusive: 97.2%
8,COc1cc(CC(=O)O)ccc1O,inconclusive: 164%
9,Nc1nc2ncc(-c3ccsc3)c(N)n2n1,inactive: 94.3%
10,COc1ccc(NC(=O)NNc2cc(N3CCOCC3)nc(N3CCOCC3)n2)cc1,inconclusive: 92.2%
11,CCOc1ccc(NC(=O)c2ccc(NC(=O)CSc3nc4ccccc4c(=O)[nH]3)cc2)cc1,inconclusive: 78.2%
12,CCOc1ccccc1NC1=NC2CS(=O)(=O)CC2S1 (stereo unspecified),inconclusive: 109%
13,CCOC(=O)c1c(C)nc2c(c1-c1cc(OC)ccc1OC)C(=O)CC(C)(C)C2,inconclusive: 84.8%
14,O=C(O)COc1ccccc1/C=N/NC(=O)CN1CCN(S(=O)(=O)c2ccc(Br)cc2)CC1,inconclusive: 76.9%
15,CC(C)(C)C(=O)Nc1nnc(CC(=O)NCc2ccccc2)s1,inconclusive: 104%
16,O=C(CN1C(=O)c2ccccc2C1=O)N1CCN=C1c1ccccc1,inconclusive: -517%
17,COC(=O)c1cc(C)ccc1OCc1ccc([N+](=O)[O-])cc1,inconclusive: 81.6%
18,CNS(=O)(=O)c1ccc2nc(NC(=O)/C=C/c3ccco3)sc2c1,inconclusive: 102%
19,CS(=O)(=O)N(CC(=O)N/N=C/c1ccccc1C(=O)O)c1cccc(Cl)c1Cl,inconclusive: 242%
20,O=c1[nH]c(CSc2nc3ccccc3o2)nc2c1cnn2-c1ccccc1,inactive: 101%
21,COc1ccc(-n2nc([N+](=O)[O-])c(=NCCCN3CCCC3=O)n2O)cc1,inconclusive: 102%
22,CCCN(CCC)C(=O)C1CCCN1S(=O)(=O)c1cccc2nsnc12 (stereo unspecified),inconclusive: 96.8%
23,O=C(NNc1cc(Cl)cc(Cl)c1)c1c(F)cccc1Cl,inconclusive: 88.7%

row,SMILES,binding response (% of control)
1,O=C(NCc1cccc(Br)c1)C1CC(c2ccccc2C(F)(F)F)=NO1 (stereo unspecified),inconclusive: 76.8%
2,O=C(Cc1ccc(F)cc1)Nc1ccc(S(=O)(=O)N2CCCCC2)cc1,inactive: 95.6%
3,O=S(=O)(NCc1ccco1)c1ccccc1Br,inconclusive: 68.9%
4,c1ccc2c(c1)nc(N1CCCCC1)c1ccccc12,inconclusive: -745%
5,O=C(/C=C/c1cccc([N+](=O)[O-])c1)NCCN1CCOCC1,inactive: 98%
6,COc1ccc2c(c1)[nH]c1c(N3CCSCC3)ncnc12,inconclusive: 82%
7,CN(C(=O)c1c[nH]c(=O)cc1C(F)(F)F)c1ccc(Cl)c(Cl)c1,inconclusive: 89.2%
8,C=C(C)Cn1cnc2cc(C)c(C)cc21,inactive: 103%
9,CCOC(=O)NC(=S)Nc1ccc(C(C)(C)C)cc1,inconclusive: 86.2%
10,O=C(COC(=O)C1CC(O)CN1S(=O)(=O)c1ccc(Cl)cc1)c1cccc(Cl)c1 (stereo unspecified),inactive: 99.5%
11,COc1ccc(CNC(=O)CSc2ccc(Br)cc2)cc1OC,inactive: 88.4%
12,O=C(Cc1cccs1)Nc1nc(-c2cccnc2)cs1,inconclusive: 125%
13,COc1ccc(CNC(=O)C2CCCN2)cc1OC (stereo unspecified),inactive: 104%
14,Cc1ccc(C(=O)Oc2ccc(N3C(=O)CCC3=O)c(C)c2)cc1,inconclusive: 96.1%
15,O=C(NC(=S)NCCOCc1ccc(Cl)cc1)c1cccnc1,inactive: 93.2%
16,CCCn1nnc(NC(=O)C(C)C)n1,inconclusive: 42.1%
17,Cc1cc(C)n2nc(SCC(=O)NC(=O)NCc3ccco3)nc2n1,inactive: 102%
18,Cc1cc(C(=O)NP(=O)(N2CC(C)OC(C)C2)N2CC(C)OC(C)C2)c(C)n1C1CC1 (stereo unspecified),inactive: 101%
19,CC(Nc1ccc2c(c1)OCCO2)C(=O)N1CCc2ccccc21 (stereo unspecified),inconclusive: 98.1%
20,COc1cc(NC(=O)COC(=O)c2cnccn2)c(C)cc1[N+](=O)[O-],inconclusive: 32.2%
21,O=C(CSc1cn(CCNC(=O)c2ccc3ccccc3c2)c2ccccc12)NCc1ccco1,inactive: 102%
22,CC1CCCC(NC(=O)CCn2c(=S)oc3ccccc32)C1C (stereo unspecified),inconclusive: 135%
23,COc1ccc(C2CC(=O)N(c3ccccc3)C3=C2C(=O)CCC3)cc1 (stereo unspecified),inconclusive: 100%

row,SMILES,binding response (% of control)
1,NC(=S)Nc1ccc(F)cc1F,inconclusive: 118%
2,O=C1/C(=C/c2cccs2)SC(=S)N1c1cccc(O)c1,inconclusive: 162%
3,CC(O)CC(C(=O)NNc1ccccc1)C(=O)NNc1ccccc1 (stereo unspecified),inconclusive: 122%
4,O=C(c1ccc(F)cc1)N1CCCC(c2nc(-c3cccs3)no2)C1 (stereo unspecified),inconclusive: 111%
5,COc1ccc(NS(=O)(=O)c2ccc(Cl)c(NC(=O)c3cccnc3Cl)c2)cc1,inconclusive: -62.5%
6,O=C(Nc1cccc2c1N(C(=O)c1ccco1)CCC2)c1ccco1,inconclusive: 107%
7,COCC(=O)Nc1ccc(OC)c(Cl)c1,inactive: 53.3%
8,O=C(Cn1c2c(c(=O)n3ncnc13)CCC2)N/N=C/c1ccc(Cl)cc1,inconclusive: 109%
9,O=C(NC1CCCC1)C1C2C=CC(C2)C1C(=O)N1CCOCC1 (stereo unspecified),inactive: 97.5%
10,Cn1c(=O)c(C(=O)CN2CCN(Cc3ccc4c(c3)OCO4)CC2)c(N)n(Cc2ccccc2)c1=O,inconclusive: 105%
11,Cc1ccc(NC(=O)Cn2nc(C)c([N+](=O)[O-])c2C)cc1Cl,inconclusive: 87%
12,CCN(CC)c1ccc(/C=N/N=C(N)N)c(O)c1,inconclusive: 107%
13,Cc1nn(C)c(C)c1NC(=O)c1ccccc1NC(=O)Nc1ccccc1,inconclusive: 85.5%
14,Cc1cc(C)cc(Oc2ccc(NC(=O)C3CC=CCC3C(=O)O)cc2)c1 (stereo unspecified),inconclusive: 111%
15,CC(C)=NNC1=NC(C)(C)Cc2ccccc21,inconclusive: 116%
16,O=C(NC(=S)Nc1cccc2c(O)cccc12)c1cccc(Br)c1,inconclusive: 123%
17,O=[N+]([O-])c1ccc(CSc2nnc3ccccn23)cc1,inconclusive: 101%
18,CC(NC(=O)c1ccc(Br)s1)c1ccncc1 (stereo unspecified),inconclusive: 88.8%
19,CCOc1ccccc1NC(=O)Nc1ccc(Br)cn1,inactive: 100%
20,CC1CC(CCC(=O)NC(=S)Nc2ccc(S(N)(=O)=O)cc2)C(=O)O1 (stereo unspecified),inactive: 105%
21,CCOc1cc2c(Cl)ncnc2c(OCC)c1OCC,inconclusive: 719%
22,NS(=O)(=O)c1ccc(-c2ccc(/C=N/Nc3ccc(C(=O)O)cc3)o2)cc1,inconclusive: 61.5%

# A second format for part of the listing above:
row | SMILES | binding response (% of control)
16 | CCCn1nnc(NC(=O)C(C)C)n1 | inconclusive: 42.1%
17 | Cc1cc(C)n2nc(SCC(=O)NC(=O)NCc3ccco3)nc2n1 | inactive: 102%
18 | Cc1cc(C(=O)NP(=O)(N2CC(C)OC(C)C2)N2CC(C)OC(C)C2)c(C)n1C1CC1 (stereo unspecified) | inactive: 101%
19 | CC(Nc1ccc2c(c1)OCCO2)C(=O)N1CCc2ccccc21 (stereo unspecified) | inconclusive: 98.1%
